Consider one substance from publication PMC7481779.

Amino acid sequences for entries named in this document (tags omitted). Residues count along the entry.
UniProt P54578: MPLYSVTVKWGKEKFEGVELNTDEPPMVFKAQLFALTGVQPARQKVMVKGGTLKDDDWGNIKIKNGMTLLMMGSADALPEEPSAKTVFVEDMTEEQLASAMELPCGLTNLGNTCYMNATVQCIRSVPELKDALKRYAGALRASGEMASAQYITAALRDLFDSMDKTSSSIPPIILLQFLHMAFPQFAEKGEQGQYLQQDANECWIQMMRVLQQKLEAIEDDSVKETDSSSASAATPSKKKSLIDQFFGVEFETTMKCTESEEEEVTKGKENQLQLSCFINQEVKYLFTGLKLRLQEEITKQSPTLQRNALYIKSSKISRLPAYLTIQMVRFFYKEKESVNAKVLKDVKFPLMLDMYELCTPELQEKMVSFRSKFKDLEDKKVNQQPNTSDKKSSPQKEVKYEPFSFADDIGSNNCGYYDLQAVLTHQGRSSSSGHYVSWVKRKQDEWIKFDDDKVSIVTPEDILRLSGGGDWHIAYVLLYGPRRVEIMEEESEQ
UniProt P35968, residues 20-1356: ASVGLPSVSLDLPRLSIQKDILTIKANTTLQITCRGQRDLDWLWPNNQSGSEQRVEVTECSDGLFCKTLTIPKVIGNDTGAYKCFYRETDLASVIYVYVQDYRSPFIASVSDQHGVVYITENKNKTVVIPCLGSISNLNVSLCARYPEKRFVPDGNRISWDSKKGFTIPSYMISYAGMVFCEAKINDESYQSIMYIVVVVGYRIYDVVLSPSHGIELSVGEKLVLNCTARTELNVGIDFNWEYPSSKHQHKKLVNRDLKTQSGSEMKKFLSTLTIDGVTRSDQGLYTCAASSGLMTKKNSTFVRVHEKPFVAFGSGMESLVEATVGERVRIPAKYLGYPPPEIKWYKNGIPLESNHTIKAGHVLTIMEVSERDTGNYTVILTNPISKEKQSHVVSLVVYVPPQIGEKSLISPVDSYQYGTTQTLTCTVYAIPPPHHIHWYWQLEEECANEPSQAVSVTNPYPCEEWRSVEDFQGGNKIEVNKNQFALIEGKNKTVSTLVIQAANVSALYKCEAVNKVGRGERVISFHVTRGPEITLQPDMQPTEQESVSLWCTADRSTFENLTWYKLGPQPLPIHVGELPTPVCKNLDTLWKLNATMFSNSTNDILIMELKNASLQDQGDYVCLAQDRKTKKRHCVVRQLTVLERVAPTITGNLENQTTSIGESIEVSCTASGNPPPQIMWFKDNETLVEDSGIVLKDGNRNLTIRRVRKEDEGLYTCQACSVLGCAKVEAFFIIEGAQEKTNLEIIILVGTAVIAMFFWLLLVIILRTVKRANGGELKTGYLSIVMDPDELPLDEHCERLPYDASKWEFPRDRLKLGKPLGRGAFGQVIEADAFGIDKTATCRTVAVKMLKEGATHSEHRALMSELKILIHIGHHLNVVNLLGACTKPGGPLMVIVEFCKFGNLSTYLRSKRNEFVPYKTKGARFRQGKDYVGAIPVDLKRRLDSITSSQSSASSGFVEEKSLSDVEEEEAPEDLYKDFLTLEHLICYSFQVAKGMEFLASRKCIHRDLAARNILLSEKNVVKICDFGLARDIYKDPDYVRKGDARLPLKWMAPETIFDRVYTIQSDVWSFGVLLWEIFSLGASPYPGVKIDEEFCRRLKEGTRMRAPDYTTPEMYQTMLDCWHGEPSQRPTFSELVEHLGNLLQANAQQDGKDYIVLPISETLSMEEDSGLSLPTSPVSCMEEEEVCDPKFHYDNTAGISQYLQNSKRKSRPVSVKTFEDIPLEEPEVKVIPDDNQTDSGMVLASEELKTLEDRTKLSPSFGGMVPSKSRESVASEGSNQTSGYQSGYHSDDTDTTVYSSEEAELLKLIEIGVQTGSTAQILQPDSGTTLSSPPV

No constants are given. Whether binding was seen depends on the method and setting. In cells and extracts the contact can be indirect. Some entries that bind do so weakly or less than the wild type.

The experiment deals with USP14 (human (endogenous in human TNBC cells)) (UniProt P54578). Briefly: co-IP; cell lysates in IP lysis buffer incubated with USP14 antibody (or IgG) all night at 4 °C, magnetic beads 1 h, western blot for VEGFR2; control cells and cells with PCAT6 knocked down. (Immunoblotting shows a protein as a band on a membrane.)

“VEGFR2 (from UniProt P35968 20-1356) (receptor)”: the binding result is on record as “binds”.
